Here are results for three substances from PMC11915870.

By UniProt entry, the sequences of proteins in these tests, tags left out.
UniProt Q16666: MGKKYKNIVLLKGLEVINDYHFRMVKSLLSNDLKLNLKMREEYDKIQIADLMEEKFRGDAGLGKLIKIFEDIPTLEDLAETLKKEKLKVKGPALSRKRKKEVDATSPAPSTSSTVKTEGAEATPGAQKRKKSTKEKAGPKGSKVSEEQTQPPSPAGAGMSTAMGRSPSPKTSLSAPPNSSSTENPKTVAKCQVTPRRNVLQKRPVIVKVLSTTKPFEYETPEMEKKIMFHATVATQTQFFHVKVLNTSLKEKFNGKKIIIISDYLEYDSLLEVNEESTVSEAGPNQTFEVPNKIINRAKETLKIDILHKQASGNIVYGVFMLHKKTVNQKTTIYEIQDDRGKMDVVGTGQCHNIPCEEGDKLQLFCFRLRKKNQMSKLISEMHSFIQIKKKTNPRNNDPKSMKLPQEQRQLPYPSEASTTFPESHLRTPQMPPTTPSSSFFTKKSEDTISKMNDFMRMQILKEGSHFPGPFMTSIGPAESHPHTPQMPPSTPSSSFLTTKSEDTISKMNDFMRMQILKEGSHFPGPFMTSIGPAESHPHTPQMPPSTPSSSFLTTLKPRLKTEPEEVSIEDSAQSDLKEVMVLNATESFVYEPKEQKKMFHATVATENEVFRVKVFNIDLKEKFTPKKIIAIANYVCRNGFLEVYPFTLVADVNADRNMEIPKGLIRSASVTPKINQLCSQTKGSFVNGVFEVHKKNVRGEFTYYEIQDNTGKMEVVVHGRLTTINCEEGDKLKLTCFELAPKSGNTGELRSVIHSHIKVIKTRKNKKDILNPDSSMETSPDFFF
UniProt Q92769: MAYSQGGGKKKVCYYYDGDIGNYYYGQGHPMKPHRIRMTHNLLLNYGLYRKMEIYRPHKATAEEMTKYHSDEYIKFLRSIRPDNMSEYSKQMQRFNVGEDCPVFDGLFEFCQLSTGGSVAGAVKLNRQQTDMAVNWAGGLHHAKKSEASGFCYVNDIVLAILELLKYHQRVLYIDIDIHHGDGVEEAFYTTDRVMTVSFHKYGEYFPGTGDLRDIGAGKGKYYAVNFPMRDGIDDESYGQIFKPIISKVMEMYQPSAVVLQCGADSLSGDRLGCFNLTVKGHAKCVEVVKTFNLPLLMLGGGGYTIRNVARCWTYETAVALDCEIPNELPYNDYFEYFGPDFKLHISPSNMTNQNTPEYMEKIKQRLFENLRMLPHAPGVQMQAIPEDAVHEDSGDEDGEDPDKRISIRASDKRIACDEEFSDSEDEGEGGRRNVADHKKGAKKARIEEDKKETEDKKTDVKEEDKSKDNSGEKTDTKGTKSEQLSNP
UniProt Q13547: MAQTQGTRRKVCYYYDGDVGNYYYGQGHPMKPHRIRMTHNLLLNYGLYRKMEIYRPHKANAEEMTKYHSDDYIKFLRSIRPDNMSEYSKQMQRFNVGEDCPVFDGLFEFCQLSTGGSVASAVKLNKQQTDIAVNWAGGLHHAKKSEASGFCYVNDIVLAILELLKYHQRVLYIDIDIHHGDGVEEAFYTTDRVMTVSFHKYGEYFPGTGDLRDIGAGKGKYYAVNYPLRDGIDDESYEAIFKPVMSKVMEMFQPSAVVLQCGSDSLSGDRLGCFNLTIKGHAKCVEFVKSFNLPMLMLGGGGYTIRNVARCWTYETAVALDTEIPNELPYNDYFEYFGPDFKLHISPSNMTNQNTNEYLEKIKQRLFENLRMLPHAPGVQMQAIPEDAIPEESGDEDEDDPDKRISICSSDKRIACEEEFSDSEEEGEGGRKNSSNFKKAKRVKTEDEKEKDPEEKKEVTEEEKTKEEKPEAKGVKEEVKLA

Experiment [1] addresses Interferon-γ-inducible protein 16 (IFI16), endogenous (human (endogenous in BCBL1, BC3, BJAB, iSLK, iSLK.219, U2OS)) (UniProt Q16666). Kind of experiment: proximity ligation; DUOLink PLA on fixed, permeabilised cells with endogenous/virally expressed proteins: BJAB, BCBL1, uninduced TREX-BCBL1, iSLK.219, iSLK de novo infected with KSHV or EdU-KSHV; also after NaB, shHDAC1/2 or siIFI16 treatment.

Experiment [2] shares this target. Kind of experiment: co-IP; endogenous/virally expressed proteins; whole-cell lysates (Pierce IP lysis buffer with protease, phosphatase and HDAC inhibitors) of BCBL1, BC3, BJAB or iSLK.219 cells; IP with specific antibody or control IgG on protein A/G beads overnight at 4°C, Western blot; also done after shRNA KD of HDAC1/2 (BCBL1) and siRNA KD of IFI16 (iSLK.219). Background: In western blotting, separated proteins are transferred to a membrane and probed.

The target in experiment [3] is HDAC2, endogenous (human (endogenous in BCBL1, BC3, BJAB, iSLK.219, HEK293T, U2OS)) (UniProt Q92769). The experiment is described as above.
For experiment [4], the target named is HDAC1, endogenous (human (endogenous in BCBL1, BC3, BJAB, iSLK.219, HEK293T, U2OS)) (UniProt Q13547). The description is as above.

No constants are given. Whether binding was seen depends on the method and setting. Binding seen in cells or lysates may run through a third protein. Some binding calls cover weakened binding; strength is not graded here.

With “HDAC1, endogenous (from UniProt Q13547 1-482) (enzyme)”, the binding entry in experiment [1] and in experiment [2] was “binds” in each case.

Turning to “HDAC2, endogenous (from UniProt Q92769 1-488) (enzyme)”, the binding result in experiment [1] and in experiment [2] was “binds” throughout.

Consider “Interferon-γ-inducible protein 16 (IFI16), endogenous (from UniProt Q16666 1-785)”, for which the binding entry in experiment [3] and in experiment [4] was “binds” each time.
